Assay results reported in article PMC11551757, “Phylogenomic instructed target analysis reveals ELAV complex binding to multiple optimally spaced U-rich motifs”.
The exact form of at least one protein or probe is not confirmed. Tags and fusion partners may be left off the protein sequences shown.

Target: T1, ELAV (rELAV) (UniProt P16914)
T1 sequence (looked up, limits assumed): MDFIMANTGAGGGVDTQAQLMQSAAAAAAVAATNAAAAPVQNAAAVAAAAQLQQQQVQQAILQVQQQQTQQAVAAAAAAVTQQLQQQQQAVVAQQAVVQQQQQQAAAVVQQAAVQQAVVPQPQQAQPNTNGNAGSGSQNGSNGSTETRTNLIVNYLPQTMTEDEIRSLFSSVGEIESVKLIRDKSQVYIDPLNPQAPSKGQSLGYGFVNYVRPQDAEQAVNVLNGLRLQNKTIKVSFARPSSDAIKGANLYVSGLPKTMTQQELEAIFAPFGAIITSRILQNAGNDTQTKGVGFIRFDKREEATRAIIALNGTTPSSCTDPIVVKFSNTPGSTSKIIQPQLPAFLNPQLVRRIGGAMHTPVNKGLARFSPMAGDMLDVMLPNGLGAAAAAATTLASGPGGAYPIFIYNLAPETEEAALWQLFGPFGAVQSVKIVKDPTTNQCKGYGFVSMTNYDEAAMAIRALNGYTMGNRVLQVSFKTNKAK
Test: EMSA
Conditions: EMSA: 50 mM Tris-HCl pH 7.5, 60 mM NaCl, 25 ug/ml tRNA, 0.5 mM DTT, 50 ug/ml acetylated BSA, 20 min; 4-6% native gel in 0.5x TBE at 4 C; recombinant protein; protein details: GST tag, cleaved off with PreScission protease

GAAGCUAUUAUACAUUUUAUCUUAUAAUUUUAUACUUUAUGUU [M7H]
Kd: 580 nM
